Measured data: PubChem BioAssay AID1259308 (NCATS, 2017)

- Aim: 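Genes whose loss raises luciferase production in HEK293 cells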 (primary screen)
- Cells: human HEK293 embryonic kidney cells stably expressing firefly luciferase (HEK-CMV-Luc2-Hygro)
- Knock-down reagent: single siRNA against human genes, 0.8 pmol siRNA per well
- Timing: 72 h
- Detection: 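Reporter luminescence and viable-cell signal on separate replicate plates, given as percent of non-targeting control and median/MAD z-scores, plus per-cell luciferase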
- Direction: total luciferase, z-score and total luciferase, % of control: higher = more reporter protein produced; luciferase per cell, z-score: higher = more reporter output per viable cell; viable cells, % of control: higher = more viable cells
- Active means: 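An siRNA counts as active if its total luciferase robust z-score exceeds 3; genes with two or more such siRNAs out of three were retested with fresh siRNAs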
- Meaning of the calls: active = raised luciferase; inactive = no rise
In all, the deposit lists about 59,000 reagents; this is a part drawn at random. About 1,510 of them (2.6%) count as active. 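Calls use total luciferase alone and ignore viability, so some active siRNAs may act by altering cell number.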 Unmarked entries are inactive. Reagents against one gene are numbered here. No sequences are given here.

target	reagent	total luciferase, z-score	total luciferase, % of control	luciferase per cell, z-score	viable cells, % of control
FAM184B (family with sequence similarity 184 member B)	1	-1.3	56.1	-0.959	80.6
FAM184B (family with sequence similarity 184 member B)	2	0.406	90	1.44	68.8
FAM184B (family with sequence similarity 184 member B)	3	-0.358	74.8	-0.873	105
CLNK (cytokine dependent hematopoietic cell linker)	1	-1.67	48.7	-1.21	74.8
CLNK (cytokine dependent hematopoietic cell linker)	2	-0.17	78.5	0.317	80.7
CLNK (cytokine dependent hematopoietic cell linker)	3	0.0322	82.5	-0.159	96.2
SH2D6 (SH2 domain containing 6)	1	-1.04	61.3	-0.784	84.2
SH2D6 (SH2 domain containing 6)	2	1.79	118	1.68	84.5
SH2D6 (SH2 domain containing 6)	3	-0.476	72.4	0.41	72.6
HSP90AA1 (heat shock protein 90 alpha family class A member 1)	1	-0.307	75.8	-0.00574	84.8
HSP90AA1 (heat shock protein 90 alpha family class A member 1)	2	-0.104	79.8	-0.0705	90.9
HSP90AA1 (heat shock protein 90 alpha family class A member 1)	3	-0.843	65.1	-0.842	90.8
C10orf88 (chromosome 10 open reading frame 88)	1	-0.0758	80.4	-0.443	101
C10orf88 (chromosome 10 open reading frame 88)	2	0.437	90.6	-0.0232	102
C10orf88 (chromosome 10 open reading frame 88)	3	-0.429	73.4	-0.328	89.4
SUN5 (Sad1 and UNC84 domain containing 5)	1	-1.52	51.7	-2.43	110
SUN5 (Sad1 and UNC84 domain containing 5)	2	1.61	114	1.52	85.3
SUN5 (Sad1 and UNC84 domain containing 5)	3	0.908	99.9	0.619	94.9
LAT (linker for activation of T cells)	1	0.865	99.1	0.63	93.8
LAT (linker for activation of T cells)	2	-0.829	65.4	-1.18	99.7
LAT (linker for activation of T cells)	3	0.076	83.4	-0.378	103
FAM3B (FAM3 metabolism regulating signaling molecule B)	1	-1.01	61.8	-0.753	84.2
FAM3B (FAM3 metabolism regulating signaling molecule B)	2	-0.208	77.7	-0.594	102
FAM3B (FAM3 metabolism regulating signaling molecule B)	3	-1.67	48.7	-0.934	69.6
VKORC1L1 (vitamin K epoxide reductase complex subunit 1L1)	1	-1.62	49.7	-0.63	65.5
VKORC1L1 (vitamin K epoxide reductase complex subunit 1L1)	2	0.0613	83.1	0.345	84.8
VKORC1L1 (vitamin K epoxide reductase complex subunit 1L1)	3	0.148	84.8	0.118	91.9
RPUSD2 (RNA pseudouridine synthase domain containing 2)	1	0.305	88	-0.23	104
RPUSD2 (RNA pseudouridine synthase domain containing 2)	2	0.174	85.4	-0.295	103
RPUSD2 (RNA pseudouridine synthase domain containing 2)	3	-0.861	64.8	-0.242	77.1
CA4 (carbonic anhydrase 4)	1	-0.19	78.1	-0.456	98.4
CA4 (carbonic anhydrase 4)	2	0.00447	82	0.602	78.2
CA4 (carbonic anhydrase 4)	3	0.168	85.2	-0.634	113
NME7 (NME/NM23 family member 7)	1	0.2	85.9	0.0892	93.7
NME7 (NME/NM23 family member 7)	2	0.998	102	0.807	91.9
NME7 (NME/NM23 family member 7)	3	1.56	113	1.11	94.1
NAA35 (N-alpha-acetyltransferase 35, NatC auxiliary subunit)	1	-0.471	72.5	-1.02	106
NAA35 (N-alpha-acetyltransferase 35, NatC auxiliary subunit)	2	0.349	88.8	-0.0821	101
NAA35 (N-alpha-acetyltransferase 35, NatC auxiliary subunit)	3	0.537	92.6	0.804	83.7

Records listed so far whose target name begins with N or n:
target	reagent	total luciferase, z-score	total luciferase, % of control	luciferase per cell, z-score	viable cells, % of control
NME7 (NME/NM23 family member 7)	1	0.2	85.9	0.0892	93.7
NME7 (NME/NM23 family member 7)	2	0.998	102	0.807	91.9
NME7 (NME/NM23 family member 7)	3	1.56	113	1.11	94.1
NAA35 (N-alpha-acetyltransferase 35, NatC auxiliary subunit)	1	-0.471	72.5	-1.02	106
NAA35 (N-alpha-acetyltransferase 35, NatC auxiliary subunit)	2	0.349	88.8	-0.0821	101
NAA35 (N-alpha-acetyltransferase 35, NatC auxiliary subunit)	3	0.537	92.6	0.804	83.7
